Assay results: PubChem BioAssay AID540256 (National Center for Advancing Translational Sciences (NCATS), 2011)
The campaign covered roughly 300,000 compounds. About 3,700 (1.2%) were called active. Inconclusive results, whose numbers are uncertain, are shown with a selection of clear calls. Calls come from the whole dose curve; tested in HEK293 cells. Potencies of inconclusive entries are doubtful fits and often do not repeat.

Assay: qHTS for Inhibitors of binding or entry into cells for Lassa Virus; note: nearly all actives have a fitted effect of over 50% in size
Settings: Lassa virus pseudotype entry inhibition, cell reporter; series mostly up to 37.9 µM
Potency is the fitted concentration of half-maximal effect.

SMILES	Potency
CCOc1ccc(S(=O)(=O)Nc2ccc(S(=O)(=O)N3CCCC3)cc2)cc1	inconclusive: 23.1 µM [inhibitor, partial curve, poor fit]
COc1ccc2nc(Nc3nc(C)c(C(C)=O)s3)sc2c1	inconclusive: 2.24 µM [activator, partial curve, poor fit]
CCOC(=O)c1sc2nc(C)nc(NCc3ccccc3OC)c2c1C	inactive
CC(C)c1ccc(S(=O)(=O)N2CCN(C(=O)c3ccco3)CC2)cc1	inconclusive: 0.112 µM [inhibitor, full curve, poor fit]
COc1cccc(CNC(=O)C2CCN(Cc3cnn(-c4ccccc4)c3-n3cccc3)CC2)c1	inconclusive: 35.5 µM [inhibitor, single point]
CN(c1cccc(Cl)c1)S(=O)(=O)c1cccc(C(=O)NC2=NCCS2)c1	inconclusive: 35.5 µM [inhibitor, single point]
O=C(OC1CNC(C#Cc2cc3ncnc(Nc4ccc(OCc5cccc(F)c5)c(Cl)c4)c3s2)C1)N1CCOCC1 (stereo not drawn)	active: 2.81 µM
COC1=C[C@H](C(=O)NCCNC(C)=O)[C@@]2(C)Cc3ccccc3[C@@H]2CC1=O	inconclusive: 0.0944 µM [inhibitor, full curve, poor fit]
Cc1ccc(Nc2c([N+](=O)[O-])c(=O)oc3ccccc23)cc1	inconclusive: 7.94 µM [inhibitor, partial curve, poor fit]
Cc1cc(-c2ccccc2)nc(N(C)NC(=O)c2ccc(Cl)cc2)c1S(C)(=O)=O	inconclusive: 10 µM [inhibitor, partial curve, poor fit]
C#CCn1cc(/C=N/Nc2nc3ccccc3[nH]2)c2ccccc21	inconclusive: 5.62 µM [inhibitor, single point]
CCOC(=O)N1CCc2c(sc(NCc3ccc(OCC)cc3)c2C(=O)Nc2ccc(OC)cc2OC)C1	inconclusive: 14.1 µM [inhibitor, partial curve, poor fit]
Cc1noc(C)c1C(=O)OCC(=O)Nc1cc(Cl)ccc1Oc1ccccc1	inactive
COC(=O)c1ccc(Cl)c(NC(=O)CN(c2ccccc2)S(=O)(=O)c2ccc(OC)cc2)c1	inconclusive: 11.2 µM [inhibitor, partial curve, poor fit]
COc1ccc(CCN(C)CC(O)COC(c2ccc(F)cc2)c2ccc(F)cc2)cc1OC (stereo not drawn)	inconclusive: 35.5 µM [inhibitor, single point]
O=C1c2ccccc2NC(c2cccs2)N1NS(=O)(=O)c1ccccc1 (stereo not drawn)	inconclusive: 8.91 µM [inhibitor, partial curve, poor fit]
COc1ccc(OC2CCN(S(=O)(=O)c3ccc(OC)cc3)CC2)cc1	inconclusive: 14.1 µM [inhibitor, single point]
C=CCC(NCc1ccccc1)c1ccccc1 (stereo not drawn)	inconclusive: 5.01 µM [activator, single point]
CC(=O)NC(Cc1ccc(N(CCCl)CCCl)cc1)C(=O)NCC(=O)NCC(=O)O (stereo not drawn)	inconclusive: 28.2 µM [inhibitor, single point]
COc1ccc(C(C)(C)C)cc1NC(=O)c1cc(S(=O)(=O)N(C)C)ccc1N1CCCC1	inconclusive: 2.91 µM [inhibitor, full curve, poor fit]
CCOC(=O)c1ccccc1NC(=O)COC(=O)c1ccc(C)c(S(=O)(=O)N2CCOCC2)c1	inconclusive: 17.8 µM [activator, partial curve, poor fit]

SMILES	Potency
O=S(=O)(Nc1ccccc1Cl)c1cc(NC(=S)NCCN2CCOCC2)ccc1Cl	inconclusive: 1.26 µM [inhibitor, single point]
CCOC(=O)c1cc2cc(OC)ccc2[nH]1	inconclusive: 1.26 µM [activator, full curve, poor fit]
CC1=C(C(=O)Nc2cccnc2)C(c2ccc(F)cc2)n2nc(SCc3ccccc3F)nc2N1 (stereo not drawn)	inactive
CCCn1c(CNS(=O)(=O)c2ccc(C)cc2)nc2ccccc21	inactive
Cc1nc(-c2ccc(NC(=O)c3ccccc3Br)cc2)cs1	inconclusive: 28.2 µM [inhibitor, single point]
CCOc1ccc(N=Nc2c(N)[nH][nH]c2=O)cc1	inconclusive: 2.82 µM [activator, partial curve, poor fit]
CN(C)/N=C/C=C1\CCC/C(=C\c2ccc(F)c(F)c2)C1=O	inconclusive: 35.5 µM [inhibitor, single point]
CC(C)S(=O)(=O)c1cnc(N2CCOCC2)nc1N	inconclusive: 2.24 µM [activator, partial curve, poor fit]
COc1cccc(CNC(=O)C2CCN(S(=O)(=O)N3CCCC3)CC2)c1	inactive
CN1C/C(=C/c2ccsc2)C(=O)/C(=C/c2ccsc2)C1	inconclusive: 28.2 µM [inhibitor, single point]
O=C(CN(Cc1ccccc1)C1=NCCS1)c1ccccc1	inactive
COc1cc2c(c(OC)c1OC)-c1ccc(OC)c(=O)cc1[C@@H](N(C)CC#CCO)CC2	inconclusive: 1.26 µM [inhibitor, partial curve, poor fit]
O=C(Nc1c(-c2ccccc2)nc2sccn12)c1ccccc1	inactive
COC(=O)c1ccc(CNC(=O)c2sccc2-c2ccccc2)cc1	inconclusive: 14.1 µM [inhibitor, partial curve, poor fit]
CC(=O)Nc1ccc(Nc2nc3ccccc3nc2NS(=O)(=O)c2ccc(Cl)c([N+](=O)[O-])c2)cc1	inconclusive: 6.31 µM [inhibitor, partial curve, poor fit]
CN(c1ccccc1)S(=O)(=O)c1cccc(NC(=O)c2ccc3ncsc3c2)c1	inconclusive: 10 µM [inhibitor, partial curve, poor fit]
CCOc1ccc(N(CC(=O)N2CCN(c3ccccc3OC)CC2)S(=O)(=O)c2ccc(F)cc2)cc1	inconclusive: 12.6 µM [inhibitor, partial curve, poor fit]
CCCCNC(=O)CSc1nc(N)c(C(=O)Nc2ccc(OC)cc2)s1	inactive
Cc1cc(NC(=O)CSc2nc3c([nH]c4ccccc43)c(=O)n2-c2cccc(Cl)c2)no1	inconclusive: 35.5 µM [inhibitor, single point]
O=C(Cc1ccccc1)N/N=C/c1ccc(OCC(=O)Nc2ccccc2)cc1	inactive
CCOC(=O)C1CCCN(C(=O)C2CCN(c3nnc(C)c4c(C)n(-c5ccccc5)nc34)CC2)C1 (stereo not drawn)	inactive

4 structures already listed, ordered by molar mass, smallest number first.
SMILES	Potency
CN(C)/N=C/C=C1\CCC/C(=C\c2ccc(F)c(F)c2)C1=O	inconclusive: 35.5 µM [inhibitor, single point]
COc1ccc2nc(Nc3nc(C)c(C(C)=O)s3)sc2c1	inconclusive: 2.24 µM [activator, partial curve, poor fit]
O=C(Cc1ccccc1)N/N=C/c1ccc(OCC(=O)Nc2ccccc2)cc1	inactive
CCOc1ccc(N(CC(=O)N2CCN(c3ccccc3OC)CC2)S(=O)(=O)c2ccc(F)cc2)cc1	inconclusive: 12.6 µM [inhibitor, partial curve, poor fit]

Additional structures:

SMILES	Potency
Fc1ccccc1-c1nc(-c2ccccc2)oc1NC1CCCCC1	inactive
CC(OC(=O)c1cc2c(s1)CCCCC2)C(=O)NC(N)=O (stereo not drawn)	inactive
Cc1cc(C(=O)CSc2nnc(-c3ccco3)o2)c(C)n1C	inactive
Cc1ccc(CN2CCCN(Cc3c(F)cccc3Cl)S2(=O)=O)cc1	inconclusive: 35.5 µM [inhibitor, single point]
CCOCCOC(=O)C1=C(C)NC2=C(C(=O)CC(c3cccs3)C2)C1c1ccsc1 (stereo not drawn)	inconclusive: 25.9 µM [inhibitor, single point]
CC1CC(C)(C)NC(=S)N1CCCC(=O)NCCc1ccc(Cl)cc1 (stereo not drawn)	inconclusive: 3.16 µM [inhibitor, single point]
O=C(COC(=O)c1ccc(O)cc1)NCCc1c[nH]c2ccccc12	inconclusive: 15.8 µM [inhibitor, partial curve, poor fit]
CCn1ccnc1CN(C)C(=O)C1CCC(=O)N(Cc2cccc(C(F)(F)F)c2)C1 (stereo not drawn)	inactive
CCOC(=O)c1c(-c2ccccc2)csc1NC(=S)NC(=O)c1ccccc1	inconclusive: 14.6 µM [inhibitor, single point]
O=S(=O)(c1ccccc1Br)N(Cc1ccccc1)CC(O)COCc1ccccc1 (stereo not drawn)	inactive
Cc1cccc(C(=O)Nc2cccc(C(=O)OCc3cc(=O)n4c5c(sc4n3)CCCC5)c2)c1	inconclusive: 2.82 µM [activator, partial curve, poor fit]
O=C(NC1CCCCCCC1)C1CCN(c2nc3ccccc3o2)CC1	inconclusive: 7.3 µM [inhibitor, partial curve, poor fit]
CN1CCN(C(c2ccc(F)cc2)c2sc3nc(-c4ccco4)nn3c2O)CC1 (stereo not drawn)	inconclusive: 7.08 µM [activator, partial curve, poor fit]
Cc1ccn2cc(-c3cccc(NC(=O)C(C)C)c3)nc2c1	inconclusive: 18.3 µM [activator, partial curve, poor fit]
CCn1c(C)c(C)c2cc(C(=O)NCCc3cc(OC)c(OC)c(OC)c3)ccc21	inconclusive: 35.5 µM [inhibitor, single point]
Oc1ccc2ccccc2c1N=Nc1nccs1	inconclusive: 7.94 µM [inhibitor, partial curve, poor fit]
Cc1ccc(S(=O)(=O)N2CCC(=O)N(C(COCc3cccc(C(F)(F)F)c3)Cc3ccccc3)CC2)cc1 (stereo not drawn)	inconclusive: 16.4 µM [inhibitor, single point]
COc1ccc(N2CCN(C(=O)C3CCN(S(=O)(=O)c4cnc[nH]4)CC3)CC2)cc1	inconclusive: 35.5 µM [activator, single point]
COC(=O)c1ccc(Cl)c(NC(=O)c2cccc([N+](=O)[O-])c2C)c1	inconclusive: 35.5 µM [inhibitor, single point]
Cc1ccc(NC(=O)N2CCC(=O)N2)cc1	inactive
Cc1cc(C)c(-c2csc(NC(=O)/C=C/c3cccs3)n2)c(C)c1	inconclusive: 14.1 µM [inhibitor, partial curve, poor fit]
